Measured values as given in PubChem BioAssay AID2685 (National Center for Advancing Translational Sciences (NCATS), 2010).
Some of the results follow. Further columns of the screen follow, without active or inactive calls. Most of these compounds were active or inconclusive in the main read-out, so they are no random draw. The note in brackets gives the kind of curve behind each potency; many fits are weak.

Assay: qHTS Assay for Lipid Storage Modulators in Drosophila S3 Cells;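 as to cell number change: cells counted by Cell Tracker Red CMTPX staining in the red channel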
Conditions: BODIPY lipid droplet fluorescence, 18-24 h; for cell number change: measured here: cell count max response, cells fed with added oleic acid
Outline: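 Drosophila S3 cells loaded with oleic acid (400 uM, as added) and compounds at several concentrations; lipid droplets imaged by 488-nm laser-scanning cytometry, 500–530 nm intensity and object ratio to cell channel. Percent activity normalized to 20 uM Triacsin C.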

[1] = measured here: lipid fluorescence (Fed channel) AC50, cells fed with added oleic acid
[2] = measured here: cell number channel AC50, cells fed with added oleic acid

| Compound | cell number change [%] | AC50 [1] | AC50 [2] |
| --- | --- | --- | --- |
| N=c1c(S(=O)(=O)c2ccc(Cl)cc2)cc2c(=O)n3ccccc3nc2n1CCc1ccccc1 | 5.84 | 1.03 µM [falling, partial curve] | – |
| CCCc1cc(=O)[nH]c(SCC(=O)c2cc(C)n(C3CC3)c2C)n1 | 18.6 | 2.91 µM [falling, partial curve] | – |
| O=C(O)CC1CCC(=C(Cl)Cl)C1 (configuration not stated) | -40.6 | 0.517 µM [falling, full curve] | 32.6 µM [falling, single point] |
| COC(=O)c1ccc(CN2C(=O)c3ccccc3S2(=O)=O)cc1 | 0.663 | 8.2 µM [rising, partial curve] | – |
| CC1CC1C(=O)OCC(=O)Nc1ccccc1Oc1ccccc1 (configuration not stated) | 145 | – | 18.4 µM [rising, single point] |
| CCC(=O)N1CCN=C1SCc1ccc(F)cc1 | 27.4 | 7.31 µM [rising, partial curve, poor fit] | – |
| COc1cccc(NC(=O)CN(C)CC(=O)Nc2ccc(C)cc2Cl)c1 | -11.6 | – | – |
| Nc1ccc(C(=O)n2c3ccccc3c3ccccc32)cc1 | -26.6 | 25.9 µM [falling, single point] | – |
| CCCCCC(=O)N/N=C/c1ccc([N+](=O)[O-])o1 | -19.5 | 32.6 µM [falling, partial curve, poor fit] | – |
| CCOC(=O)c1cc(OC(=O)c2ccccc2Br)n(-c2ccccc2)n1 | -5.07 | – | – |
| COc1ccccc1C(=O)NCC(=O)Nc1ccc2c(c1)OCO2 | -82.1 | 0.206 µM [falling, partial curve, poor fit] | 20.6 µM [falling, partial curve] |
| CCOC(=O)C1CCN(C(=O)c2cc3ccc(OC)cc3[nH]2)CC1 | – | 6.51 µM [rising, single point] | 6.51 µM [rising, single point] |
| CCCNc1nc2c(c(=O)n(C)c(=O)n2C)n1CCC(C)C | 54.2 | 29.1 µM [rising, single point] | 29.1 µM [rising, single point] |
| CCCCCCC(=O)Nc1nc(C)c(-c2csc(Nc3ccccc3OC)n2)s1 | – | 0.0731 µM [rising, full curve, poor fit] | – |
| CN1C(=O)[C@H]2[C@@H](C3CC3)N3C(=O)CN(Cc4ccc(-c5ccccc5)cc4)C(=O)[C@@]3(C)[C@H]2C1=O | 31.7 | – | 0.164 µM [rising, full curve, poor fit] |
| COc1ccc(C2=NN3C(=O)c4c(ccc(OC)c4OC)C3C2)cc1 (configuration not stated) | 66 | 0.82 µM [rising, single point] | 2.31 µM [rising, full curve] |
| O=C(CNc1ccc(Br)cc1)c1ccc(Br)s1 | 0.952 | – | – |
| O=C(NCCCCNC(=O)C(F)(F)F)C(F)(F)F | – | – | 6.51 µM [falling, single point] |
| CNC(=S)NCCc1ccccc1 | 6.45 | 0.00461 µM [falling, full curve, poor fit] | – |

Single records, as listed above:
CCOC(=O)C1CCN(C(=O)c2cc3ccc(OC)cc3[nH]2)CC1 is entered as AC50 [1]: 6.51 µM [rising, single point]; AC50 [2]: 6.51 µM [rising, single point]
CCCCCC(=O)N/N=C/c1ccc([N+](=O)[O-])o1 is entered as cell number change [%]: -19.5; AC50 [1]: 32.6 µM [falling, partial curve, poor fit]
CNC(=S)NCCc1ccccc1 is entered as cell number change [%]: 6.45; AC50 [1]: 0.00461 µM [falling, full curve, poor fit]

Following part.

| Compound | cell number change [%] | AC50 [1] | AC50 [2] |
| --- | --- | --- | --- |
| CC(=O)c1c(C)nc(-c2ccc3c(c2)OCO3)n1O | -3.11 | – | – |
| CS(=O)(=O)N(CC(=O)Nc1ccc(CC#N)cc1)c1ccc(C23CC4CC(CC(C4)C2)C3)cc1 | -124 | 29.1 µM [falling, single point] | – |
| COC(=O)c1sc2nc(N3CCCCC3)c3c(c2c1N)CCCC3 | -35.5 | 3.26 µM [rising, partial curve] | 25.9 µM [falling, single point] |
| CCCCC(=O)Nc1ccc(C(=O)NNC(=S)NC(=O)c2ccccc2[N+](=O)[O-])cc1 | 16 | 29.1 µM [rising, single point] | – |
| Cc1cccc(OCCCC(=O)Nc2nnc(C3CCCO3)s2)c1C (configuration not stated) | -11.4 | – | – |
| Cc1ccc(F)c([C@H]2[C@H]3C=CC[C@@H](C)[C@@H]3C(=O)N2Cc2ccccc2)c1 | -58.9 | 20.6 µM [falling, single point] | 16.4 µM [falling, single point] |
| O=C(Oc1ccc2c(c1)O/C(=C\c1ccncc1)C2=O)c1cccs1 | -28.5 | 13 µM [falling, single point] | – |
| CNc1nc(C)c(C(C)=O)cc1C#N | -9.57 | – | – |
| COc1cc(CNc2nnnn2C)ccc1OCc1c(F)cccc1Cl | -0.814 | 0.103 µM [falling, full curve, poor fit] | – |
| O=C(Cc1ccc([N+](=O)[O-])cc1)Nc1cccnc1 | 11.6 | 5.17 µM [falling, single point] | 6.51 µM [falling, single point] |
| CC(=O)N1CCC(C(=O)Nc2ccccc2)(N(Cc2ccccc2)C(=O)c2cccnc2)CC1 | 26.1 | 29.1 µM [rising, single point] | – |
| COC(=O)C1=CNC=C(C(=O)OC)C1c1cccc2ccccc12 | 2.78 | 29.1 µM [falling, partial curve, poor fit] | – |
| C=CCN1CC(c2nc3ccccc3n2CCOc2ccccc2)CC1=O (configuration not stated) | -26.5 | 0.651 µM [rising, single point] | – |
| CCc1ccc(S(=O)(=O)/N=C2/C=C(Sc3ncn[nH]3)C(=O)c3ccccc32)cc1 | -72.5 | 20.6 µM [falling, partial curve] | 20.6 µM [falling, partial curve] |
| CCN(CC)CCNC(=O)c1ccc(NC(=O)COc2ccc3c(c2)CCC3)cc1 | -16.9 | 0.00461 µM [rising, full curve, poor fit] | – |
| O=C(CCCNS(=O)(=O)c1cccc2nsnc12)NCc1ccc(Cl)cc1 | -17.1 | 13 µM [falling, partial curve] | – |
| Cc1ccc(NC(=O)COC(=O)CN2CCCCCC2=O)c(C)c1 | -8.97 | 0.651 µM [rising, full curve] | 0.82 µM [rising, full curve] |
| CCCc1cc(=O)[nH]c(Nc2ccc(OC)c(Cl)c2)n1 | -45.8 | – | 32.6 µM [falling, partial curve] |
| Cc1ccc(S(=O)(=O)N2CCOCC2)cc1C(=O)OCC(=O)N(Cc1ccccc1)C(C)C | -9.11 | 32.6 µM [falling, single point] | – |
